# Results reported in the supplement of paper PMC3682954.
# “And” between values parts separate entries of the source, which are not always exact repeats. Identical values can stand only once. Counter-ions that a name gives are not always drawn. ± gives the standard deviation of the averaged measurements. Some of the results follow. Many values rest on one well or one pass, so single values are uncertain.
# Tested on: RAW 264.7
# Test: HMGB1-induced TNF-alpha production relative to HMGB1-stimulated control; higher = more TNF-alpha secretion (less inhibition)
# Details: stimulus: HMGB1 5 ug/ml, 18 h
# [1] = compound concentration: 1 ug/ml
SMILES,HMGB1-induced TNF-alpha production (compound concentration: 3 uM),HMGB1-induced TNF-alpha production [1] [%]
CCOC(=O)C1=C[C@@H](OC(CC)CC)[C@H](NC(C)=O)[C@@H](N)C1 [Oseltamivir],83.3%,–
C[C@]12CCC(=O)C=C1CC[C@@H]1[C@@H]2[C@@H](O)C[C@@]2(C)[C@H]1CC[C@]2(O)C(=O)CO [Hydrocortisone base],28.9%,–
"C[C@]12CCC(=O)C=C1CC[C@@H]1[C@@H]2[C@@H](O)C[C@@]2(C)[C@H]1CC[C@]2(O)C(=O)CO [Hydrocortisone, 98%]",–,56.6
C[C@]12CCC(=O)C=C1CC[C@@H]1[C@@H]2[C@@H](O)C[C@@]2(C)[C@H]1CC[C@]2(O)C(=O)CO [Hydrocortisone],53.4 ± 21%,–
C[C@]12CCC(=O)C=C1CC[C@@H]1[C@@H]2[C@@H](O)C[C@@]2(C)[C@H]1CC[C@]2(O)C(=O)CO,40.2%,–
CC(=O)C1=C(O)C=C2Oc3c(C(C)=O)c(O)c(C)c(O)c3[C@@]2(C)C1=O [(+)-Usnic acid],–,71.6
O=C(CCc1ccc(O)cc1)c1c(O)cc(O)cc1O[C@@H]1O[C@H](CO)[C@@H](O)[C@H](O)[C@H]1O [Phloridzin dihydrate],–,59
S=C(S)OC1CC2CC1C1CCCC21 [D-609 potassium],104%,–
O=c1cc(-c2ccccc2F)[nH]c2cc3c(cc12)OCO3 [CHM-1 hydrate],129%,–
Oc1ncnc2[nH]ncc12 [Allopurinol],101 ± 9.4%,–
Oc1ncnc2[nH]ncc12,98.2%,–
O=[N+]([O-])c1ccc(-c2nc(-c3ccc(F)cc3)c(-c3ccncc3)[nH]2)cc1,71.2%,–
Cc1sc(N)c(C(=O)c2cccc(C(F)(F)F)c2)c1C,99.5%,–
CC(=O)Oc1c(C)c(C)c2c(c1C)CCC(C)(CCCC(C)CCCC(C)CCCC(C)C)O2 (racemic) [DL-a-Tocopherol acetate],–,74.7
CO/N=C(\C(=O)N[C@@H]1C(=O)N2C(C(=O)OCOC(=O)C(C)(C)C)=C(/C=C\c3scnc3C)CS[C@H]12)c1csc(N)n1,78.6%,–
CN(N=O)C(=O)N[C@H]1C(O)O[C@H](CO)[C@@H](O)[C@@H]1O (mixture of isomers),91.3 ± 1.6%,–
Cc1onc(-c2ccccc2)c1-c1ccc(S(N)(=O)=O)cc1,84%,–
COc1ccc(CCN(C)CCCC(C#N)(c2ccc(OC)c(OC)c2)C(C)C)cc1OC (stereo not given),–,66.1
COc1ccc(CCN(C)CCCC(C#N)(c2ccc(OC)c(OC)c2)C(C)C)cc1OC (stereo not given) [Verapamil hydrochloride],66.2%,–
COc1ccc(CCN(C)CCCC(C#N)(c2ccc(OC)c(OC)c2)C(C)C)cc1OC (stereo not given) [Verapamil],98.3%,–
CCCc1cc(=O)[nH]c(=S)[nH]1 [Propylthiouracil],59.1%,–
CCCc1cc(=O)[nH]c(=S)[nH]1,87.6%,–
C[N+]1(CCCCC[N+]2(C)CCCC2)CCCC1 [Pentolinium di[L(+)-tartrate]],107%,–
C[N+]1(CCCCC[N+]2(C)CCCC2)CCCC1 [Pentolinium bitartrate],88.9%,–
O=C(Nc1ccccc1)c1cc([N+](=O)[O-])ccc1Cl,98%,–

SMILES,HMGB1-induced TNF-alpha production (compound concentration: 3 uM),HMGB1-induced TNF-alpha production [1] [%]
Fc1ccc(C(c2ccc(F)cc2)N2CCN(C/C=C/c3ccccc3)CC2)cc1,91%,–
Fc1ccc(C(c2ccc(F)cc2)N2CCN(C/C=C/c3ccccc3)CC2)cc1 [Flunarizine dihydrochloride],75.4 ± 7.7%,–
Fc1ccc(C(c2ccc(F)cc2)N2CCN(C/C=C/c3ccccc3)CC2)cc1 [Flunarizine 2HCl],92.1%,–
CN1CCc2c(c3ccccc3n2Cc2ccccc2)C1,65.4%,–
O=C(O)c1cc(O)c2c(c1)C(=O)c1cccc(O)c1C2=O [Rhein],–,71.2
CC(=O)Nc1cc2ccccc2oc1=O [3-Acetamidocoumarin],92.6%,–
CCCCC(=O)O[C@H]1CC[C@H]2[C@@H]3CCc4cc(O)ccc4[C@H]3CC[C@]12C [Estradiol Valerate],80%,–
CCCCC(=O)O[C@H]1CC[C@H]2[C@@H]3CCc4cc(O)ccc4[C@H]3CC[C@]12C,93.5%,–
CCCCC(=O)O[C@H]1CC[C@H]2[C@@H]3CCc4cc(O)ccc4[C@H]3CC[C@]12C [estradiol valerate],–,69.3
N=C(N)c1ccc(OCCCCCOc2ccc(C(=N)N)cc2)cc1 [Pentamidine],99.4%,–
N=C(N)c1ccc(OCCCCCOc2ccc(C(=N)N)cc2)cc1 [Pentamidine isethionate],98 ± 21%,–
N=C(N)c1ccc(OCCCCCOc2ccc(C(=N)N)cc2)cc1,75.4%,–
O=C(OC[C@H]1O[C@@H](OC(=O)c2cc(O)c(O)c(OC(=O)c3cc(O)c(O)c(O)c3)c2)[C@H](OC(=O)c2cc(O)c(O)c(OC(=O)c3cc(O)c(O)c(O)c3)c2)[C@@H](OC(=O)c2cc(O)c(O)c(OC(=O)c3cc(O)c(O)c(O)c3)c2)[C@@H]1OC(=O)c1cc(O)c(O)c(OC(=O)c2cc(O)c(O)c(O)c2)c1)c1cc(O)c(O)c(OC(=O)c2cc(O)c(O)c(O)c2)c1,128 ± 32%,–
COc1ccc2c(CN3CCOCC3)cc(=O)oc2c1,–,79.2
Cn1c(NCCN(CCO)CCCc2ccc([N+](=O)[O-])cc2)cc(=O)n(C)c1=O,114%,–
Cn1c(NCCN(CCO)CCCc2ccc([N+](=O)[O-])cc2)cc(=O)n(C)c1=O [Nifekalant],89.9%,–
O=c1cc(-c2ccccc2O)oc2c(O)c(O)ccc12,–,51.2
C[C@H](N)CO,98.3%,–
OCCOCCN1CCN(C2=Nc3ccccc3Sc3ccccc32)CC1 [Quetiapine],73%,–
OCCOCCN1CCN(C2=Nc3ccccc3Sc3ccccc32)CC1,108% and 95.8%,–
OCCOCCN1CCN(C2=Nc3ccccc3Sc3ccccc32)CC1 [Quetiapine Fumarate],96.9%,–
CCC(=O)O[C@@H](O[P@](=O)(CCCCc1ccccc1)CC(=O)N1C[C@H](C2CCCCC2)C[C@H]1C(=O)O)C(C)C [Fosinopril],107 ± 14%,–
COc1cccc2c1C(=O)c1c(O)c3c(c(O)c1C2=O)C[C@@](O)(C(=O)CO)C[C@@H]3O[C@H]1C[C@H](N)[C@H](O)[C@H](C)O1,45% and 50.4%,–
COc1cccc2c1C(=O)c1c(O)c3c(c(O)c1C2=O)C[C@@](O)(C(=O)CO)C[C@@H]3O[C@H]1C[C@H](N)[C@H](O)[C@H](C)O1 [Doxorubicin hydrochloride],31.8%,–
COc1cccc2c1C(=O)c1c(O)c3c(c(O)c1C2=O)C[C@@](O)(C(=O)CO)C[C@@H]3O[C@H]1C[C@H](N)[C@H](O)[C@H](C)O1 [Doxorubicin HCl],36.5%,–
